Experimental data published in publication PMC12069319, “Transcriptional co-regulator OCA-B/Pou2af1 restricts Th2 differentiation”.
No constants are given. Whether binding was seen depends on the method and setting. In cells and extracts the contact can be indirect.

The chains behind the UniProt entries cited, without tags or fusion partners.
UniProt P14859: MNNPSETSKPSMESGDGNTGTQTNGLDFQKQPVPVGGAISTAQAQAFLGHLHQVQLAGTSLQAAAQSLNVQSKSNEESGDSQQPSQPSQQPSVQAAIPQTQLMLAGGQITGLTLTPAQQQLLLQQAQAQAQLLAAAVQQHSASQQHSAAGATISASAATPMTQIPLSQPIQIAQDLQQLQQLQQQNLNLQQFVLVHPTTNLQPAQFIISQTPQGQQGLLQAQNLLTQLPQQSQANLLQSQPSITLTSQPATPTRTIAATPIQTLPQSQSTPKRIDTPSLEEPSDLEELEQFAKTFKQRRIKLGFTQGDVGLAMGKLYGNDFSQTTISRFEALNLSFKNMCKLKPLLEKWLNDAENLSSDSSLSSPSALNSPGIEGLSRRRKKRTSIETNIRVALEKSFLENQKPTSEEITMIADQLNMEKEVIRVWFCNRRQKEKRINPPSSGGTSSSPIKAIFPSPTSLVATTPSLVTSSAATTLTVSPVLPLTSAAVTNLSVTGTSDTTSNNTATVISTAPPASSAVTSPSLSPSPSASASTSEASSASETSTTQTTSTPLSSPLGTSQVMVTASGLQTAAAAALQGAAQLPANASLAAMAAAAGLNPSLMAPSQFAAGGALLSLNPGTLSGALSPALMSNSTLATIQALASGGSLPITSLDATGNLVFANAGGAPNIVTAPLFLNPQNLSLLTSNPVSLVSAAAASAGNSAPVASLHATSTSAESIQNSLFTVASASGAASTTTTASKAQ
UniProt P23771: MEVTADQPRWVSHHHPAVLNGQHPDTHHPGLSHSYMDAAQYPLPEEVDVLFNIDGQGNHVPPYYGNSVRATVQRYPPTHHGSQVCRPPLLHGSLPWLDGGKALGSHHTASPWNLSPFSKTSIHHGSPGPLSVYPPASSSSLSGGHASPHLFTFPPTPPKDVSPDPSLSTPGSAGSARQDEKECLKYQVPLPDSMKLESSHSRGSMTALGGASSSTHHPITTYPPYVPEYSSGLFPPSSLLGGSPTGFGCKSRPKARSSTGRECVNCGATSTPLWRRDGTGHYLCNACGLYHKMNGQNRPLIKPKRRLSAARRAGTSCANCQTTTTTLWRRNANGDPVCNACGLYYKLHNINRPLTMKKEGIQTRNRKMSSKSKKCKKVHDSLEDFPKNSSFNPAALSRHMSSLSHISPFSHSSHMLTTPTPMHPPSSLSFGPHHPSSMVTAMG

What was measured:
[1] = biological target: Oct1 (POU2F1) (human (endogenous in SupT1)) (UniProt P14859); experiment: co-IP; reciprocal co-IP from lysates of parental SupT1 and hOCA* cells; 50 mM Tris pH 7.5, 500 mM NaCl, 0.5 mM EDTA, 1% Triton X-100; anti-Oct1, anti-GATA3 or anti-OCA-B, Protein G Dynabeads, 4°C
[2] = biological target: T1, OCA-B (POU2AF1), endogenous (human (endogenous in SupT1)) (UniProt Q16633); experiment: as above
T1 sequence: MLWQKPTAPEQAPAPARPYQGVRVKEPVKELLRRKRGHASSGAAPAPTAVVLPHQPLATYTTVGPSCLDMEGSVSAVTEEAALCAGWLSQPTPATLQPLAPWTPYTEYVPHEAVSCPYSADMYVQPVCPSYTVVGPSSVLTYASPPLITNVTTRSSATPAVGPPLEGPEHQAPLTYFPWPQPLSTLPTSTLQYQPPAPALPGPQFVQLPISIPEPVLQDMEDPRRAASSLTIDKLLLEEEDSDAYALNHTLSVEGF

binding [1]: no binding | binding [2]: no binding
Substance: GATA3 (from UniProt P23771 1-443)
